Reference: PubChem BioAssay AID587 (National Center for Advancing Translational Sciences (NCATS), 2007)
Screen size: about 59,000 compounds; about 35 (0.06%) were called active. The inconclusive results got no clear call from the source; some entries with a clear call stand among them for comparison. Cut-off read from the data, not from the text of the source: active = max dye-equivalent concentration above about 10 nM; inconclusive = between about 1.1 nM and that limit; inactive = weaker than that.

Assay: qHTS Assay for Spectroscopic Profiling in Texas Red Spectral Region
Settings: Compound fluorescence, Texas Red channel, 547/618 nm; stronger effect = higher value
How it was run: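 qHTS profiling of intrinsic compound fluorescence; 100 mM Tris pH 8.0; 15 min RT; ex 547 / em 618 nm; response expressed as Texas Red dye-equivalent concentration from six-point plate standard.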

Row | SMILES | max dye-equivalent concentration
1 | Cc1cc(C(C)(C)C)cc(CNC2CCCCC2)c1O | inactive
2 | CC(=O)C1=C(C)Nc2ncnn2C1c1ccc(Cl)cc1Cl (stereo unspecified) | inconclusive: 1.1 nM
3 | O=C(NCCC1=CCCCC1)C1CCN(S(=O)(=O)N2CCOCC2)CC1 | inconclusive: 1.2 nM
4 | CN(C)S(=O)(=O)c1cccc(-c2cn3ccccc3n2)c1 | inconclusive: 1.4 nM
5 | O=c1ccccn1Cc1ccccc1F | inconclusive: 1.1 nM
6 | CC(Oc1ccc(Cl)cc1Cl)C(=O)NCCCn1ccnc1 (stereo unspecified) | inconclusive: 1.8 nM
7 | CCOc1ccc(-c2cc3nc(C4CCN(C(=O)OC(C)(C)C)CC4)c(C(=O)O)cn3n2)cc1 | inconclusive: 2 nM
8 | NS(=O)(=O)c1cc2c(cc1Cl)N[C@@H](CC1CCCC1)NS2(=O)=O | inactive
9 | Cc1cc(C)n2nc(C(=O)Nc3ccc4c(c3)OCO4)nc2n1 | inconclusive: 1.7 nM
10 | O=C(CSc1nnc([C@@H]2CCCN2)o1)c1ccc(Cl)cc1 | inconclusive: 1.9 nM
11 | CCOC(=O)c1c(NC(=O)c2cccs2)sc(C)c1C | inconclusive: 1.6 nM
12 | CC(C)Cn1c(SCC(=O)NC2CCCc3ccccc32)nc(O)cc1=O (stereo unspecified) | inactive
13 | CC[C@H](CN(C)C)C(=O)c1ccco1 | inactive
14 | Cc1cc2ccc(OC(=O)c3ccc(N=C(N)N)cc3)cc2oc1=O | inactive
15 | c1ccc(Cc2nnc3sc(C4COc5ccccc5O4)nn23)cc1 (stereo unspecified) | inconclusive: 1.1 nM
16 | CCn1nnc(NC(=O)c2ccc(-c3ccc(Cl)cc3)o2)n1 | inconclusive: 1.1 nM
17 | CN(CC(=O)N1CCN(c2ccccn2)CC1)S(=O)(=O)c1ccc2ccccc2c1 | inconclusive: 2 nM
18 | CCc1nnc(NC(=O)C2CC(=O)N(CCc3ccccc3)C2)s1 (stereo unspecified) | inconclusive: 1.1 nM
19 | CCC1(c2ccccc2)NC(=O)N(CC(=O)Nc2cccc(C#N)c2)C1=O (stereo unspecified) | inconclusive: 1.1 nM
20 | COC(=O)C(C(=O)NCC1CCCO1)C1CCCCCC1 (stereo unspecified) | inconclusive: 1.6 nM
21 | Cc1cccc(N2C(=O)C3C4C=CC(C4)C3C2=O)c1 (stereo unspecified) | inconclusive: 1.1 nM
22 | COc1ccccc1N1C(=O)c2ccccc2NC1c1ccncc1 (stereo unspecified) | inconclusive: 1.4 nM
23 | O=C(COC(=O)c1ccc2c(c1)OCCO2)NCCC1=CCCCC1 | inconclusive: 1.7 nM
24 | O=c1[nH]c(C(F)(F)F)nc2c1nnn2Cc1ccccc1F | inconclusive: 2.5 nM
25 | CC(C)OCCCNC(=O)C1CCN(S(=O)(=O)N2CCCCC2)CC1 | inconclusive: 1.1 nM
26 | COC(=O)Nc1nnc(Cc2ccccc2)s1 | inconclusive: 1.1 nM

A draw from above in order of length of the SMILES, falling.
Row | SMILES | max dye-equivalent concentration
7 | CCOc1ccc(-c2cc3nc(C4CCN(C(=O)OC(C)(C)C)CC4)c(C(=O)O)cn3n2)cc1 | inconclusive: 2 nM
8 | NS(=O)(=O)c1cc2c(cc1Cl)N[C@@H](CC1CCCC1)NS2(=O)=O | inactive
14 | Cc1cc2ccc(OC(=O)c3ccc(N=C(N)N)cc3)cc2oc1=O | inactive
18 | CCc1nnc(NC(=O)C2CC(=O)N(CCc3ccccc3)C2)s1 (stereo unspecified) | inconclusive: 1.1 nM
16 | CCn1nnc(NC(=O)c2ccc(-c3ccc(Cl)cc3)o2)n1 | inconclusive: 1.1 nM
22 | COc1ccccc1N1C(=O)c2ccccc2NC1c1ccncc1 (stereo unspecified) | inconclusive: 1.4 nM
1 | Cc1cc(C(C)(C)C)cc(CNC2CCCCC2)c1O | inactive
13 | CC[C@H](CN(C)C)C(=O)c1ccco1 | inactive
